This assay has as its target S. aureus PhoR (BACTH fusion) (S. aureus Mu50). The experiment in a line: two-hybrid; BACTH (EuroMedex) in E. coli BTH101, plasmids pKT25 and pUT18C; beta-galactosidase activity of cultures grown overnight at 30°C with 0.5 mM IPTG; significance by Dunnett's test against the negative control (no gene in pUT18C).

Results are given in words; binding and its absence hold for the method and conditions named. Binding can be weak; no strength is given.

As for “S. aureus PhoR (BACTH fusion) (from UniProt A0A0H2XFS9 1-553)”, the binding result is listed as “binds”.

These data come from publication PMC11705898.
